The list is a part of this screen's results and no random one: it is rich in T/C values a quarter to a half above the control, in often repeated tests (any T/C) and in doses without a T/C. Other doses and runs of a compound stand elsewhere. T/C is the treated group as % of the vehicle group. Some entries give survivors of the animals treated and no T/C: the source holds a T/C of zero for them, seemingly a mark for toxic or unscored doses. Some doses without a T/C left all or most animals alive at the check, yet need not have been tolerated: the source hardly ever lists a survival T/C far under the control, and the zero likely stands for such cases as well. Survivors were counted at the toxicity check, usually on the fifth day, unless a day is given; later deaths do not show. Schedules are NCI's codes, read here as Q, the interval in days (D) or hours (H), X, the number of doses.
System: AKR/Lw mice, AKR lymphoma ip, median survival T/C
Assay: NCI In Vivo Anticancer Drug Screen. Data for tumor model Lymphoma AKR (Transplanted) (intraperitoneal) in AKR/Lw mice
Conditions: T/C endpoint: median survival time, schedule: Q01DX001 (ip), higher T/C = longer survival
Experimental: The antitumor activity of compounds was measured in mice bearing transplantable tumors. Survival or tumor size were measured and the results are expressed as the measurement made in the treated group (T) divided by the measurement made in the vehicle treated control group (C). The tumor model used in this assay is Lymphoma AKR (Transplanted) (intraperitoneal) in AKR/Lw mice

Compound	survivor count (dose: 400.0 mg/kg/injection, vehicle: Klucel (hydroxypropylcellulose) (HPC))	survivor count (dose: 200.0 mg/kg/injection, vehicle: saline)
O=C(c1ccccc1)C1CCC1	10 of 10	
CN(C)C(C)(C)CNc1ccc(C(=O)O)cc1		10 of 10
